Results are given in words; binding and its absence hold for the method and conditions named. In cells and extracts the contact can be indirect. Some entries that bind do so weakly or less than the wild type. Tags and fused reporters may be left off the sequences shown.
T1: Flag-PAB1 (yeast, UniProt P04147 1-577)
T1 sequence (looked up): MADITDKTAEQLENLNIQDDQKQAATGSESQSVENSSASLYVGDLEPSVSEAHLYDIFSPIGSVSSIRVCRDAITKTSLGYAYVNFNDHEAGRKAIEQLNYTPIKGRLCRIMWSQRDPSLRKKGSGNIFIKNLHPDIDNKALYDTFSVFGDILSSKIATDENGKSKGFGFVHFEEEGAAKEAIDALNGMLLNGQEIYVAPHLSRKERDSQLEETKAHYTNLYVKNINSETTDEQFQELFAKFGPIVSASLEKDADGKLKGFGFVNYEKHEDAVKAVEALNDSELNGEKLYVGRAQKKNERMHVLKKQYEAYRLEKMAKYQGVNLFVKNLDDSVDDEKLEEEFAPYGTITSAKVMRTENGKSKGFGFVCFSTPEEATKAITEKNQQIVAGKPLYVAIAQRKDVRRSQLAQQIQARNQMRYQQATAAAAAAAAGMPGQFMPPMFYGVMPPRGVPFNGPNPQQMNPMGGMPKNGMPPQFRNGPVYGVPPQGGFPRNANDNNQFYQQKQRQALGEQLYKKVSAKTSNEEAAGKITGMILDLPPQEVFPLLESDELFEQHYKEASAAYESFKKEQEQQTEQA

By UniProt entry, the sequences of proteins in these tests, tags left out.
UniProt P04456: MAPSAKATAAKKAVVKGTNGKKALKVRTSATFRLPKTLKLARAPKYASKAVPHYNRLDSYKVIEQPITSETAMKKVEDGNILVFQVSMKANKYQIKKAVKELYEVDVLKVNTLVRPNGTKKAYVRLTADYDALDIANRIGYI

T2: eIF4E-Flag (yeast, UniProt P07260 1-213)
T2 sequence (looked up): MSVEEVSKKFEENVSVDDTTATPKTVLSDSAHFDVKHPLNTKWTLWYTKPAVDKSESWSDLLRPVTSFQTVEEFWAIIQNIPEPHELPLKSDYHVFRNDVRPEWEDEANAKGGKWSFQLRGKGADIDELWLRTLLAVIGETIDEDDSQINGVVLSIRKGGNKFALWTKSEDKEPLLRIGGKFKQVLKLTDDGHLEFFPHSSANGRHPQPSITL

T3: Flag-PAB1 (yeast), P04147
T3 chain: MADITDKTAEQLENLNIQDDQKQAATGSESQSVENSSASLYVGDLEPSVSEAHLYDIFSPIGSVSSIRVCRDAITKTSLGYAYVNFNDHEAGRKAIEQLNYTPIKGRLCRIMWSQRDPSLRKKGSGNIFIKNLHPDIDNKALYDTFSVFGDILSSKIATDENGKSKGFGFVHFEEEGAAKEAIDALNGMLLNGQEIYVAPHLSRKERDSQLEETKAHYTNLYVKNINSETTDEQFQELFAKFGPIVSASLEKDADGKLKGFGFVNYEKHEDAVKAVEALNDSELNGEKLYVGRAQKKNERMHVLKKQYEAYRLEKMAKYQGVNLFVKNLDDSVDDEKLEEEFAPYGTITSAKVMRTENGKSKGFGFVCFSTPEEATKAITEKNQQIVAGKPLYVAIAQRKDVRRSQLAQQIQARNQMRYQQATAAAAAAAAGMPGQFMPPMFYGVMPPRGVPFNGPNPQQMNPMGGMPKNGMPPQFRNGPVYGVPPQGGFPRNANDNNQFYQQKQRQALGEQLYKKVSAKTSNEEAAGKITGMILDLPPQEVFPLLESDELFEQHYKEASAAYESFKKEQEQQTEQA


Tests used:
Flag-PAB1 [1] = target: T1, Flag-PAB1; experiment: co-IP + AUC; as a1, but material migrating from 90S to 200S (polysomal translating complexes); cells on glucose (elongation), or glucose depleted 10 min and glucose added back for 1 min (initiation)
RPL25A-Flag (yeast) = RPL25A-Flag (yeast) (UniProt P04456); experiment: co-IP + AUC; RPL25A-Flag anti-Flag bead purification from yeast crude extract, Flag peptide elution, AU-FDS of the GFP fusion; 80S free ribosome; cells depleted of glucose for 10 min, also on glucose
eIF4E-Flag = target: T2, eIF4E-Flag; experiment: co-IP + AUC; one-step anti-Flag bead purification from yeast crude extract (Tris pH 7.5, 0.15 M KCl, 2 mM MgCl2, 10% glycerol, 4°C), Flag peptide elution, then AU-FDS of the GFP fusion with AU-A230 or AU-A260 (20°C, 15,000 rpm); material migrating at 77S (monosomal translating complex); cycloheximide added to cells; cells on glucose (elongation), or glucose depleted 10 min and glucose added back for 1 min or 0 min (initiation)
Flag-PAB1 [2] = target: T1, Flag-PAB1; experiment: as above
[3] = target: T3, Flag-PAB1 (yeast), P04147; experiment: co-IP; Flag-PAB1 co-expressed with PAB1-GFP in yeast; anti-Flag purification; fraction not stated; details: remark: other sources report otherwise

binding (Flag-PAB1 [1]) | binding (RPL25A-Flag (yeast)) | other results | Binder
binds | binds | binding (eIF4E-Flag): binds; binding (Flag-PAB1 [2]): binds | RPS4B-GFP (protein, UniProt P0CX36 1-261) MARGPKKHLKRLAAPHHWLLDKLSGCYAPRPSAGPHKLRESLPLIVFLRNRLKYALNGREVKAILMQRHVKVDGKVRTDTTYPAGFMDVITLDATNENFRLVYDVKGRFAVHRITDEEASYKLGKVKKVQLGKKGVPYVVTHDGRTIRYPDPNIKVNDTVKIDLASGKITDFIKFDAGKLVYVTGGRNLGRIGTIVHKERHDGGFDLVHIKDSLDNTFVTRLNNVFVIGEQGKPYISLPKGKGIKLSIAEERDRRRAQQGL
– | binds | – | STM1-GFP (protein, UniProt P39015 1-273) MSNPFDLLGNDVEDADVVVLPPKEIVKSNTSSKKADVPPPSADPSKARKNRPRPSGNEGAIRDKTAGRRNNRSKDVTDSATTKKSNTRRATDRHSRTGKTDTKKKVNQGWGDDKKELSAEKEAQADAAAEIAEDAAEAEDAGKPKTAQLSLQDYLNQQANNQFNKVPEAKKVELDAERIETAEKEAYVPATKVKNVKSKQLKTKEYLEFDATFVESNTRKNFGDRNNNSRNNFNNRRGGRGARKGNNTANATNSANTVQKNRNIDVSNLPSLA
binds | – | – | RPL7A-GFP (protein, UniProt P05737 1-244) MAAEKILTPESQLKKSKAQQKTAEQVAAERAARKAANKEKRAIILERNAAYQKEYETAERNIIQAKRDAKAAGSYYVEAQHKLVFVVRIKGINKIPPKPRKVLQLLRLTRINSGTFVKVTKATLELLKLIEPYVAYGYPSYSTIRQLVYKRGFGKINKQRVPLSDNAIIEANLGKYGILSIDDLIHEIITVGPHFKQANNFLWPFKLSNPSGGWGVPRKFKHFIQGGSFGNREEFINKLVKSMN
binds | – | – | RPL6B-GFP (protein, UniProt P05739 1-176) MTAQQAPKWYPSEDVAAPKKTRKAVRPQKLRASLVPGTVLILLAGRFRGKRVVYLKHLEDNTLLVTGPFKVNGVPLRRVNARYVIATSTKVSVEGVNVEKFNVEYFAKEKLTKKEKKEANLFPEQQTKEIKTERVEDQKVVDKALLAEIKKTPLLKQYLSASFSLKNGDKPHLLKF
– | – | binding [3]: no binding | PAB1-GFP (natural protein, yeast, UniProt P04147 1-577, looked up, the printed name puts GFP after the protein; source: yeast strain carrying the GFP fusion, in crude extract) MADITDKTAEQLENLNIQDDQKQAATGSESQSVENSSASLYVGDLEPSVSEAHLYDIFSPIGSVSSIRVCRDAITKTSLGYAYVNFNDHEAGRKAIEQLNYTPIKGRLCRIMWSQRDPSLRKKGSGNIFIKNLHPDIDNKALYDTFSVFGDILSSKIATDENGKSKGFGFVHFEEEGAAKEAIDALNGMLLNGQEIYVAPHLSRKERDSQLEETKAHYTNLYVKNINSETTDEQFQELFAKFGPIVSASLEKDADGKLKGFGFVNYEKHEDAVKAVEALNDSELNGEKLYVGRAQKKNERMHVLKKQYEAYRLEKMAKYQGVNLFVKNLDDSVDDEKLEEEFAPYGTITSAKVMRTENGKSKGFGFVCFSTPEEATKAITEKNQQIVAGKPLYVAIAQRKDVRRSQLAQQIQARNQMRYQQATAAAAAAAAGMPGQFMPPMFYGVMPPRGVPFNGPNPQQMNPMGGMPKNGMPPQFRNGPVYGVPPQGGFPRNANDNNQFYQQKQRQALGEQLYKKVSAKTSNEEAAGKITGMILDLPPQEVFPLLESDELFEQHYKEASAAYESFKKEQEQQTEQA
